Laboratory results reported in patent US11077138B2, “Methods of tissue repair and regeneration” (INNOLIFE CO., LTD., priority 2015, dated 2021).

Test: Copper concentrations in aortic rings after culturing
Design: species or system Sprague Dawley rats
Details: 8 days

Substance: Copper sulfide
- copper concentration in aortic rings (5 μM added copper): 26 μg/g tissue
- copper concentration in aortic rings (25 μM added copper): 63 μg/g tissue
- copper concentration in aortic rings (50 μM added copper): 106 μg/g tissue
- copper concentration in aortic rings (100 μM added copper): 162 μg/g tissue
